The record followed here is article PMC11953467.

Sequences of proteins named here, by UniProt entry; tags and fusion partners are left off.
UniProt P49682: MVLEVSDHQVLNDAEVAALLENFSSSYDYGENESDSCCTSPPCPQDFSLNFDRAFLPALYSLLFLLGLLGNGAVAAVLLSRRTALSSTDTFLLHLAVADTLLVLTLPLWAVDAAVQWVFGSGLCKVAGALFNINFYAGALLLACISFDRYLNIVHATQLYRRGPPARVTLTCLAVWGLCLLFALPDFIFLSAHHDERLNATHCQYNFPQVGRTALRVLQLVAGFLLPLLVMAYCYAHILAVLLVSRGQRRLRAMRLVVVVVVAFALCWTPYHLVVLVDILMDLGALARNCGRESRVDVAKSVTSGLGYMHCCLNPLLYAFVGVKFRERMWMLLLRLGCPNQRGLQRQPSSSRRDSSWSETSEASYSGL
UniProt P49407: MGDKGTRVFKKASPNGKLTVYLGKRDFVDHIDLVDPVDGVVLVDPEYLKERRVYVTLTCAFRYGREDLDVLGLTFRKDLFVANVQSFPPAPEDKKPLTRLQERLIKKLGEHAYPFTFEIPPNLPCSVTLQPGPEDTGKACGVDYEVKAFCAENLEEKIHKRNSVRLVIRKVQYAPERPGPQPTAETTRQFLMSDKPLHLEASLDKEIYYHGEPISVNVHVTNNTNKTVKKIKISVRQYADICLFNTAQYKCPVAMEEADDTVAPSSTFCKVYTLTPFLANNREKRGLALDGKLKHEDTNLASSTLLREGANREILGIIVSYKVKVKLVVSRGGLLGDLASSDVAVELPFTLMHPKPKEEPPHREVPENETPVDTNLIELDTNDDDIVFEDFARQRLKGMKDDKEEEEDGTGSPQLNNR

No constants are given. Whether binding was seen depends on the method and setting. Binding seen in cells or lysates may run through a third protein. Some binding calls cover weakened binding; strength is not graded here.

The target in this test is CXCR3-SmBiT (UniProt P49682). Description: split reporter; direct mode: receptor with C-terminal SmBiT and LgBiT-βarr1 or LgBiT-βarr2 in HEK293T cells; luminescence after stimulation with VUF10661 or VUF11418 (VUF11207 as reference at CXCR7).

Consider LgBiT-βarr1 (from UniProt P49407 1-418), for which the binding result was “binds”.
